These are yes or no findings as the source states them, for the method shown. In cells and extracts the contact can be indirect.
Target: Ank2 (Ankyrin-B) (mouse (endogenous in cultured hippocampal neurons)) (UniProt Q8C8R3)
Assay: co-IP; lysate of WT mouse cultured hippocampal neurons (DIV 17-18); lysis buffer 150 mM NaCl, 50 mM Tris pH 7.4, 1 mM EDTA, 1% TX-100; 1 ug mouse IgG, anti-Ank2 or anti-Ank3 antibody, 4 °C 2 h; protein A/G agarose beads; immunoblot

The chains behind the UniProt entries cited, without tags or fusion partners. Where a name states a change or a piece, a line headed by the entry shows the natural chain unless it says otherwise.
UniProt Q8C8R3: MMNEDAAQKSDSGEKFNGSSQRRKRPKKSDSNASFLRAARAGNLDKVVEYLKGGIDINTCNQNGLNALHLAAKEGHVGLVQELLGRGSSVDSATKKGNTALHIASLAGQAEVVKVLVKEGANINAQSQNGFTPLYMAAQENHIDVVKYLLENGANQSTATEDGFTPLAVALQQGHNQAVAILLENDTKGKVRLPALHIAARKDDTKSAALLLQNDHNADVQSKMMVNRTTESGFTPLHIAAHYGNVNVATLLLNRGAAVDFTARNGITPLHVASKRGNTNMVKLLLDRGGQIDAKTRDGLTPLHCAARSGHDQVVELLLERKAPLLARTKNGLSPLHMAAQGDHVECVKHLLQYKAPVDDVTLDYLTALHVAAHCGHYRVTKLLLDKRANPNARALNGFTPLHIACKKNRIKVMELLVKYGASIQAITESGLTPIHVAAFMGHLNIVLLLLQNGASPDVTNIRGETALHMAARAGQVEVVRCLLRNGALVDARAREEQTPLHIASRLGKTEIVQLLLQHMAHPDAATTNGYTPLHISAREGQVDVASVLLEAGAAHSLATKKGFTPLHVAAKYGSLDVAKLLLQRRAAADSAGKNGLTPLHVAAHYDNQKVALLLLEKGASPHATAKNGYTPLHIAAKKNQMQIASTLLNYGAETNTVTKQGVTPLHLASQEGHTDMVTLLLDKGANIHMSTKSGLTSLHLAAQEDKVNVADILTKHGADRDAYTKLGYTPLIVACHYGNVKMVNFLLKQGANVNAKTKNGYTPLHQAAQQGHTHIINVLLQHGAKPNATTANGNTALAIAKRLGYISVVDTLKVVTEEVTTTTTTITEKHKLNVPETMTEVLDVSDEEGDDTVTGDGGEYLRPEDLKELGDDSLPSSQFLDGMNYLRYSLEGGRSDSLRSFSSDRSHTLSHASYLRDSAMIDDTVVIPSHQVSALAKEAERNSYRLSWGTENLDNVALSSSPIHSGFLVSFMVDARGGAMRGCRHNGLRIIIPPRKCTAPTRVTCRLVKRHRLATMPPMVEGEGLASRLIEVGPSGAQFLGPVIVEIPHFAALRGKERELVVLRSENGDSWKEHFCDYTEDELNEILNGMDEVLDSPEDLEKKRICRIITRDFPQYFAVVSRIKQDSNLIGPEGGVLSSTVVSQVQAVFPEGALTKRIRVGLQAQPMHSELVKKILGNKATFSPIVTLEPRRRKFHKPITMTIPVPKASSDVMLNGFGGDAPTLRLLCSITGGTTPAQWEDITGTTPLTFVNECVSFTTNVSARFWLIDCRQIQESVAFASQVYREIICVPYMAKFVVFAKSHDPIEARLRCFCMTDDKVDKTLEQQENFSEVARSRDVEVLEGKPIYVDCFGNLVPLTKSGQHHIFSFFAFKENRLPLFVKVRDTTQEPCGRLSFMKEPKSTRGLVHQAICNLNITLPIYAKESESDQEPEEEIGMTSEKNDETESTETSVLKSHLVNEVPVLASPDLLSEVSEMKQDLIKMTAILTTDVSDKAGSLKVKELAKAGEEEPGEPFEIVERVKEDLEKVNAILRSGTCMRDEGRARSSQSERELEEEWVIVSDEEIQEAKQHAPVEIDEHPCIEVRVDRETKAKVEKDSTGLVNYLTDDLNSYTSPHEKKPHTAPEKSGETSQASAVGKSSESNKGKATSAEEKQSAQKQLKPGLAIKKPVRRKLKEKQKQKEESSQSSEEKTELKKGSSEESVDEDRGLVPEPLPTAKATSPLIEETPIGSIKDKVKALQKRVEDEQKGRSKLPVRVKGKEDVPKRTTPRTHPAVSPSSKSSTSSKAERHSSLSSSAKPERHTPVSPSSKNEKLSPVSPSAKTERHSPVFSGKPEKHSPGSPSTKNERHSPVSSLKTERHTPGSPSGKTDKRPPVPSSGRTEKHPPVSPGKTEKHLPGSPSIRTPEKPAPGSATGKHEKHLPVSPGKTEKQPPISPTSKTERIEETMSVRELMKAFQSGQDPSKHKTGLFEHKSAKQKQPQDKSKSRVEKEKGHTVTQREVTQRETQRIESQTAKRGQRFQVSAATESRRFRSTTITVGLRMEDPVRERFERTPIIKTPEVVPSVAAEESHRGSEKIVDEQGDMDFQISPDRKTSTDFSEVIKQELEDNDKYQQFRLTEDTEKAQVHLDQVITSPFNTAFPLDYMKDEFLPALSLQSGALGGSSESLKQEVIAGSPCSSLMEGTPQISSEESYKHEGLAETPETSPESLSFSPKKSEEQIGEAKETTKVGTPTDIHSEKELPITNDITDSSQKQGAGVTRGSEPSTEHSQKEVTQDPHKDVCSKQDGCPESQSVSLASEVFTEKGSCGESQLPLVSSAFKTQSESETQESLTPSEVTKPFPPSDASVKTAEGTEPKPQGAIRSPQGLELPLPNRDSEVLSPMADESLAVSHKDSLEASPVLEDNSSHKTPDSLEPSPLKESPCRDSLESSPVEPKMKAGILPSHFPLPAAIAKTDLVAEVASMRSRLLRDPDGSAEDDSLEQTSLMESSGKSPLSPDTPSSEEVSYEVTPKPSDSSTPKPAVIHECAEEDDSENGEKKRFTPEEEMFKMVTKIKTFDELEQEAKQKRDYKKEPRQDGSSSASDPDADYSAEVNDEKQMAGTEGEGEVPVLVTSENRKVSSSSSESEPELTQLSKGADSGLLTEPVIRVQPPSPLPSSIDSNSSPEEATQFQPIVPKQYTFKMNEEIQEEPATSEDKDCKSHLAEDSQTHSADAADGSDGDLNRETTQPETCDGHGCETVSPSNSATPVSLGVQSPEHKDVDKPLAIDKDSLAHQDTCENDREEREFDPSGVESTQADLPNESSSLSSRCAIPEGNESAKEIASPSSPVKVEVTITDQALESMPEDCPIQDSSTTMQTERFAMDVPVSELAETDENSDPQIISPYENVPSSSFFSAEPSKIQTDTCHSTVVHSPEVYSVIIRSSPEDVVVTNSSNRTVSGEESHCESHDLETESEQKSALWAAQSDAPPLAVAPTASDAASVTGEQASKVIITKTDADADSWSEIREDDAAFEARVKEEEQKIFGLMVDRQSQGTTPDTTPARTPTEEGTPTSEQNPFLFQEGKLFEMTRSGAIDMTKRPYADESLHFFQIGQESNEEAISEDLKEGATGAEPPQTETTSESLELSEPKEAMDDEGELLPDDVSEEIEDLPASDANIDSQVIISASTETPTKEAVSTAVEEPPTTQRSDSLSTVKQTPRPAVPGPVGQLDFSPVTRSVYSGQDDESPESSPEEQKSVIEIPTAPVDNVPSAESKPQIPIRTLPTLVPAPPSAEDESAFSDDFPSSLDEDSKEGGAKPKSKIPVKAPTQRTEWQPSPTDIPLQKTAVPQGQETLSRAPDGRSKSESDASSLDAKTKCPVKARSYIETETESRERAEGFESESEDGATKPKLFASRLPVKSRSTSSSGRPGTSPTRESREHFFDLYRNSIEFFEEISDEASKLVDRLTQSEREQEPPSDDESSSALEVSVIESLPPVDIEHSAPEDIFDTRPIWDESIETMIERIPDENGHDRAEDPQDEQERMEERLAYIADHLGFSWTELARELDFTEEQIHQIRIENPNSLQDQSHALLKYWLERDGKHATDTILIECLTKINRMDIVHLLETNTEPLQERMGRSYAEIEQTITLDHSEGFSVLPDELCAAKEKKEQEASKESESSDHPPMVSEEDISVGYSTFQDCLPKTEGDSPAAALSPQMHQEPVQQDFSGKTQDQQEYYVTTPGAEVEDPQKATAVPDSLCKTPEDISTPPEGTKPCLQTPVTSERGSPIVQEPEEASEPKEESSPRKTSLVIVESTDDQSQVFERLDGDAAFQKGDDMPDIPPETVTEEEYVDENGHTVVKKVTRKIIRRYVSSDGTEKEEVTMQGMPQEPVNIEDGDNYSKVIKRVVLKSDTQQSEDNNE
UniProt Q9Z351: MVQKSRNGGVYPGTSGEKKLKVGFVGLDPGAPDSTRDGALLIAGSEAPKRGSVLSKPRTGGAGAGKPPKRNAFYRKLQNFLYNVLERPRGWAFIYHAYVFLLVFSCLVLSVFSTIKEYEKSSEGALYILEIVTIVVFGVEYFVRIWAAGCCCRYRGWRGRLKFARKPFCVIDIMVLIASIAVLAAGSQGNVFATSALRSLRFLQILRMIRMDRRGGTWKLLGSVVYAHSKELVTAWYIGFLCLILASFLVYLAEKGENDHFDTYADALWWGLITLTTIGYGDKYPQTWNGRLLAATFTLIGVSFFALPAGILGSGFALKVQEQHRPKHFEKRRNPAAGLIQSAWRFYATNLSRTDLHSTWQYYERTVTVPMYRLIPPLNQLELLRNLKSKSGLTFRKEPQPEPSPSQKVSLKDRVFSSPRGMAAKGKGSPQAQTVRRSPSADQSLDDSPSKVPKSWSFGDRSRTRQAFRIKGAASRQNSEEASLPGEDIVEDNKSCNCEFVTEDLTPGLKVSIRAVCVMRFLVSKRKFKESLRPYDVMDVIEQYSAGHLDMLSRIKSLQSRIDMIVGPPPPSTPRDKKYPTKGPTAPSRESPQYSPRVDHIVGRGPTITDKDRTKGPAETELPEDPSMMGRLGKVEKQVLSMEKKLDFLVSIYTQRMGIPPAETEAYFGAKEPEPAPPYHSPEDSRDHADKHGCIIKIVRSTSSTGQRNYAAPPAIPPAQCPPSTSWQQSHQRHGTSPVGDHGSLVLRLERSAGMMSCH
UniProt Q8K3F6: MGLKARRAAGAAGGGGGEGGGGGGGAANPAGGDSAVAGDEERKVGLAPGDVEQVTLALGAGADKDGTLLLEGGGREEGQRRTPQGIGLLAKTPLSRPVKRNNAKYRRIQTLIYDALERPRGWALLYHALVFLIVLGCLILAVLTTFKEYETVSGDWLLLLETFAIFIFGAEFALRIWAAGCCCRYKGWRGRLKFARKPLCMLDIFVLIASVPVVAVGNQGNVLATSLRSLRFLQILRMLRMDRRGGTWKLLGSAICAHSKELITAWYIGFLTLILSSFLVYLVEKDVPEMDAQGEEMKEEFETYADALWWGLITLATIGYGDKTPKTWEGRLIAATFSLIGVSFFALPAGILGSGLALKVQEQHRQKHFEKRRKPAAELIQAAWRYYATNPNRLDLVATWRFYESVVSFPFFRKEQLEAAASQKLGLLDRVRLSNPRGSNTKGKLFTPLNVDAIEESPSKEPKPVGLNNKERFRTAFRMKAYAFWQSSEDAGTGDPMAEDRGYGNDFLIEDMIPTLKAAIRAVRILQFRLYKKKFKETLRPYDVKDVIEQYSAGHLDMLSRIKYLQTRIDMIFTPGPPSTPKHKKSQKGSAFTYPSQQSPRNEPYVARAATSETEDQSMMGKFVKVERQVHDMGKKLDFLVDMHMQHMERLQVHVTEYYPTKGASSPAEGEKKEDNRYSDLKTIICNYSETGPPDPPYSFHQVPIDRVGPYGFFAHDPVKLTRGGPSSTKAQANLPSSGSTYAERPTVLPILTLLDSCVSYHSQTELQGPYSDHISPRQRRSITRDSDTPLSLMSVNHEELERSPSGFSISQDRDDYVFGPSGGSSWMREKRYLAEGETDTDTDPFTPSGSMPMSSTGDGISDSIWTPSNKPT

| Substance | binding |
| --- | --- |
| Kv7.2/KCNQ2 potassium channel subunit (from UniProt Q9Z351 1-759) | no binding |
| Kv7.3/KCNQ3 potassium channel subunit (from UniProt Q8K3F6 1-873) | no binding |

From PMC10272139
